No constants are given. Whether binding was seen depends on the method and setting. Some entries that bind do so weakly or less than the wild type.
Biological target: T1, IL-17A重组蛋白 (UniProt Q16552)
T1 sequence (looked up): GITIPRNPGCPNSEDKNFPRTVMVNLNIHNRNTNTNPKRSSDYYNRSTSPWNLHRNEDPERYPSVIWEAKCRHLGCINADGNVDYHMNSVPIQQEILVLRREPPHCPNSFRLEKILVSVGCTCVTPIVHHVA
Test: ELISA, IL-17A coated at 1 μg/ml, scFv at 0.1 μg/ml, anti-His detection, OD450

- binding: binds
B1: 全人源抗IL-17A单链抗体No.34 (scFv)
scFv: MQVQLVQSGAEVKPPGASVKVSCKASGYTFTTHKIQWVRQAPGQRLEWMGWINTDKGDTKYSQKFQGRVTITSDTSASTAFMDLSSLRSEDTAVYYCARDGEGYAPFGMDVWGQGTTVTVSSGGGGSGGGGSGGGGSDIRLTQSPPSLSASVGDRVTITCRASQTIGSHLNWYQQKPGKAPKLLIYAASSLQSGVPSRFSGSGSGTDFTLTISSLQPEDFATYYCQQSHSGLTFGGGTKVDIK
